Paper PMC3623654
Results are given in words; binding and its absence hold for the method and conditions named. Some entries that bind do so weakly or less than the wild type. Each block holds one binder with its values, some of them ahead of it.

Biological target: Plasmodium falciparum DHFR domain (amino acids 1-228), expressed from pAC-pfDHFR (Plasmodium falciparum) (UniProt P13922)
Assay: co-purification on methotrexate-sepharose affinity column; pfDHFR and truncated pfJRTS co-expressed in E. coli χ2913; crude extract circulated overnight over methotrexate-sepharose CL-6B in buffer A with 0.2 M KCl, washed with 0.75 M KCl, DHFR eluted with 4 mM H2folate; pfTS found in the eluate by TS activity and [3H]-FdUMP labelling

B2: pfJRTSΔ232-235 (domain or fragment, UniProt P13922 236-608)
chain: MEQNCIKGEEKNNDMPLKNDDKDTCHMKKLTEFYKNVDKYKINYENDDDDEEEDDFVYFNFNKEKEEKNKNSIHPNDFQIYNSLKYKYHPEYQYLNIIYDIMMNGNKQSDRTGVGVLSKFGYIMKFDLSQYFPLLTTKKLFLRGIIEELLWFIRGETNGNTLLNKNVRIWEANGTREFLDNRKLFHREVNDLGPIYGFQWRHFGAEYTNMYDNYENKGVDQLKNIINLIKNDPTSRRILLCAWNVKDLDQMALPPCHILCQFYVFDGKLSCIMYQRSCDLGLGVPFNIASYSIFTHMIAQVCNLQPAQFIHVLGNAHVYNNHIDSLKIQLNRIPYPFPTLKLNPDIKNIEDFTISDFTIQNYVHHEKISMDMAA
- binding: binds

B3: pfJRTSΔ232-251 (domain or fragment, UniProt P13922 252-608)
chain: MEKNDDKDTCHMKKLTEFYKNVDKYKINYENDDDDEEEDDFVYFNFNKEKEEKNKNSIHPNDFQIYNSLKYKYHPEYQYLNIIYDIMMNGNKQSDRTGVGVLSKFGYIMKFDLSQYFPLLTTKKLFLRGIIEELLWFIRGETNGNTLLNKNVRIWEANGTREFLDNRKLFHREVNDLGPIYGFQWRHFGAEYTNMYDNYENKGVDQLKNIINLIKNDPTSRRILLCAWNVKDLDQMALPPCHILCQFYVFDGKLSCIMYQRSCDLGLGVPFNIASYSIFTHMIAQVCNLQPAQFIHVLGNAHVYNNHIDSLKIQLNRIPYPFPTLKLNPDIKNIEDFTISDFTIQNYVHHEKISMDMAA
- binding: binds

B5: pfJRTSΔ232-265 (domain or fragment, UniProt P13922 266-608)
chain: MEFYKNVDKYKINYENDDDDEEEDDFVYFNFNKEKEEKNKNSIHPNDFQIYNSLKYKYHPEYQYLNIIYDIMMNGNKQSDRTGVGVLSKFGYIMKFDLSQYFPLLTTKKLFLRGIIEELLWFIRGETNGNTLLNKNVRIWEANGTREFLDNRKLFHREVNDLGPIYGFQWRHFGAEYTNMYDNYENKGVDQLKNIINLIKNDPTSRRILLCAWNVKDLDQMALPPCHILCQFYVFDGKLSCIMYQRSCDLGLGVPFNIASYSIFTHMIAQVCNLQPAQFIHVLGNAHVYNNHIDSLKIQLNRIPYPFPTLKLNPDIKNIEDFTISDFTIQNYVHHEKISMDMAA
- binding: binds

Further lines, results first:

- binding: binds
B1: pfJRTSΔ232-276 (domain or fragment, UniProt P13922 277-608)
chain: MNYENDDDDEEEDDFVYFNFNKEKEEKNKNSIHPNDFQIYNSLKYKYHPEYQYLNIIYDIMMNGNKQSDRTGVGVLSKFGYIMKFDLSQYFPLLTTKKLFLRGIIEELLWFIRGETNGNTLLNKNVRIWEANGTREFLDNRKLFHREVNDLGPIYGFQWRHFGAEYTNMYDNYENKGVDQLKNIINLIKNDPTSRRILLCAWNVKDLDQMALPPCHILCQFYVFDGKLSCIMYQRSCDLGLGVPFNIASYSIFTHMIAQVCNLQPAQFIHVLGNAHVYNNHIDSLKIQLNRIPYPFPTLKLNPDIKNIEDFTISDFTIQNYVHHEKISMDMAA

- binding: binds
B4: pfJRTSΔ232-271 (domain or fragment, UniProt P13922 272-608)
chain: MDKYKINYENDDDDEEEDDFVYFNFNKEKEEKNKNSIHPNDFQIYNSLKYKYHPEYQYLNIIYDIMMNGNKQSDRTGVGVLSKFGYIMKFDLSQYFPLLTTKKLFLRGIIEELLWFIRGETNGNTLLNKNVRIWEANGTREFLDNRKLFHREVNDLGPIYGFQWRHFGAEYTNMYDNYENKGVDQLKNIINLIKNDPTSRRILLCAWNVKDLDQMALPPCHILCQFYVFDGKLSCIMYQRSCDLGLGVPFNIASYSIFTHMIAQVCNLQPAQFIHVLGNAHVYNNHIDSLKIQLNRIPYPFPTLKLNPDIKNIEDFTISDFTIQNYVHHEKISMDMAA

- binding: binds
B6: pfJRTSΔ232-274 (domain or fragment, UniProt P13922 275-608)
chain: MKINYENDDDDEEEDDFVYFNFNKEKEEKNKNSIHPNDFQIYNSLKYKYHPEYQYLNIIYDIMMNGNKQSDRTGVGVLSKFGYIMKFDLSQYFPLLTTKKLFLRGIIEELLWFIRGETNGNTLLNKNVRIWEANGTREFLDNRKLFHREVNDLGPIYGFQWRHFGAEYTNMYDNYENKGVDQLKNIINLIKNDPTSRRILLCAWNVKDLDQMALPPCHILCQFYVFDGKLSCIMYQRSCDLGLGVPFNIASYSIFTHMIAQVCNLQPAQFIHVLGNAHVYNNHIDSLKIQLNRIPYPFPTLKLNPDIKNIEDFTISDFTIQNYVHHEKISMDMAA
